# The list shows a part of the results.
# System: T1, CTL2-GFP (C. trachomatis L2/434/Bu, GFP-expressing)
# T1 construct: L2/434/Bu, GFP-expressing
# Set-up: species or system HeLa; Intracellular C. trachomatis growth in HeLa cells, bulk GFP fluorescence relative to DMSO
# Settings: bulk GFP, single well; 28.5 h, 10 µM; inhibitor
row,SMILES,% of control remaining [%]
1,O=C1COc2ccccc2CCCCC2(CCCN(C(=O)CCN3CCCC3=O)C2)CN1 (centres unmarked) [CBK291998],144.609
2,CSCCC(=O)N1CCN(C(=O)c2ccco2)CC1 [CBK144468],120.22
3,CCN(C(C)COC)S(=O)(=O)c1ccc(C(F)(F)F)nc1 (centres unmarked) [CBK304042],112.23
4,CC1CCCCN1CCCNC(=O)c1ccc(-c2nc(-c3ccc(C#N)cc3)cnc2N)cc1 (centres unmarked) [CBK107139],72.4689
5,FC(F)(F)c1cccc(CN2CCC(N3CCCCC3)CC2)c1 [CBK261855],100
6,CCC(=O)Nc1ccc(-c2csc(N(C)C)n2)cc1 [CBK304294C],80.0561
7,Cc1[nH]ncc1C(=O)N1CCn2cc(C(F)(F)F)nc2C1 [CBK282307],138.001
8,Cc1nc(NCCN2CCCC(CO)C2)nc2c1CCCC2 (centres unmarked) [CBK307430],141.459
9,CC(C(=O)NCCN1CCOCC1)N1c2cccc3cccc(c23)S1(=O)=O (centres unmarked) [CBK269911],116.658
10,COC(=O)c1ccccc1NC(=O)c1c(C)c(-c2ccc(C)cc2)nc2ccccc12 [CBK263641],100
11,Cc1ccc(C)c(OCCN(C)c2cc(C3CC(N)C3)nc(N)n2)c1 (centres unmarked) [CBK307695],56.5639
12,CN(C(=O)c1ccccc1C(=O)O)C1CC(C)(C)NC(C)(C)C1 [CBK287117],102.876
13,COC(=O)c1ccccc1NC(=O)CSc1nnc(-c2sc(N)nc2C)o1 [CBK266250],166.195
14,Cc1cccc(-c2ccc(CC3(C(N)=O)CCN(C(=O)CCc4ccccc4)CC3)cc2)c1 [CBK285796],38.9162
15,O=C(C1CCCN1)N1CC2(CCCC2)c2c(F)cccc21 (centres unmarked) [CBK304489],143.847
16,N=C1NC(=O)C(CC(=O)Nc2ccc(SC(F)F)cc2)S1 (centres unmarked) [CBK265648],100
17,Cc1nn(-c2ccccc2)c2[nH]c(=O)c(CNC(C)(C)C)cc12 [CBK282921],88.2377
18,COc1ccc(CNCCN2CCOCC2)c(OC)c1 [CBK278180C],152.231
19,NC(=O)c1ccc(SCC(=O)O)c([N+](=O)[O-])c1 [CBK034310],100
20,CCc1noc(C)c1C(=O)NCCN1CCCCC1C (centres unmarked) [CBK282219],121.453
21,O=C(O)C1=CC(c2ccc(O)cc2)n2ncnc2N1 (centres unmarked) [CBK286545],106.342
22,O=C(NCCC(c1ccccc1)c1ccco1)C1CCCN1 (centres unmarked) [CBK282499],128.449
23,O=C(COc1ccc(N2CC(C(=O)O)CC2=O)cc1)Nc1cccc(C(F)(F)F)c1 (centres unmarked) [CBK268096],145.797

# Gathered by group, those above containing a furan ring, fused or not (2)
row,SMILES,% of control remaining [%]
2,CSCCC(=O)N1CCN(C(=O)c2ccco2)CC1 [CBK144468],120.22
22,O=C(NCCC(c1ccccc1)c1ccco1)C1CCCN1 (centres unmarked) [CBK282499],128.449
